Positions count from the first letter of the chain named. Names may count otherwise. No constants are given. Whether binding was seen depends on the method and setting. One block for each binder: values may come before it.
Key:
Assay in all cases: SEC; Superdex-75 10/300 GL, 50 mM Hepes pH 7.4, 250 mM NaCl, 10% glycerol, 0.1% DDM; detergent-solubilized protein; both purified
[1] = biological target: T1, WT RHBDL4 (human rhomboid protease RHBDL4, recombinant) (human) (UniProt Q8TEB9)
T1 sequence: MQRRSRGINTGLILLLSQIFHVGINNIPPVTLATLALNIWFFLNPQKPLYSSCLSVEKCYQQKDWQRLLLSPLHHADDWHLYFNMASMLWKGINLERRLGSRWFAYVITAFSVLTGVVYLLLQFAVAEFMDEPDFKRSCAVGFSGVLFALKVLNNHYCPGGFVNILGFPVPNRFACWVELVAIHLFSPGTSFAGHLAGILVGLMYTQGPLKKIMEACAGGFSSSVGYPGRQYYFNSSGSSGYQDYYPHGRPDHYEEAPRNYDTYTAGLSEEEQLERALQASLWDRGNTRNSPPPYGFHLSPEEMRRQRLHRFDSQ

RHBDL4-Ax3G (human) = RHBDL4-Ax3G (human) (UniProt Q8TEB9)
[2] = biological target: inactive RHBDL4-S144A (human) (UniProt Q8TEB9)
RHBDL4-AR (human) = RHBDL4-AR (human) (UniProt Q8TEB9)

B2: RHBDL4-Ax3G (enzyme, UniProt Q8TEB9 1-315)
chain: T1 sequence with G198A
binding (RHBDL4-Ax3G (human)): no binding

B3: inactive RHBDL4-S144A (enzyme, UniProt Q8TEB9 1-315)
chain: T1 sequence with S144A
binding [2]: no binding

The remaining lines, values ahead:

binding [1]: no binding
B1: WT RHBDL4 (human rhomboid protease RHBDL4, recombinant) (enzyme, UniProt Q8TEB9 1-315)
chain: T1 sequence

binding (RHBDL4-AR (human)): no binding
B4: RHBDL4-AR (enzyme, UniProt Q8TEB9 1-315)
chain: T1 sequence with W65A

Reference: paper PMC11929074, “An in vitro platform for the enzymatic characterization of the rhomboid protease RHBDL4” (The Journal of Biological Chemistry, 2025)
